According to publication PMC4889068:

Target: Hsp90 purified from HeLa cells (Enzo Life Sciences) (human (endogenous in HeLa))
Experiment: ELISA; competition: Hsp90 coated on plate; constant 1.33 μM CacyBP/SIP alone or with increasing Sgt1 (0 to 1.33 μM, Sgt1A and Sgt1B 1:1); detected with anti-CacyBP/SIP antibody; both purified

B1: recombinant Sgt1A (human) (protein, UniProt Q9Y2Z0-2 1-333)
chain: MAAAAAGTATSQRFFQSFSDALIDEDPQAALEELTKALEQKPDDAQYYCQRAYCHILLGNYCVAVADAKKSLELNPNNSTAMLRKGICEYHEKNYAAALETFTEGQKLDSADANFSVWIKRCQEAQNGSESEVWTHQSKIKYDWYQTESQVVITLMIKNVQKNDVNVEFSEKELSALVKLPSGEDYNLKLELLHPIIPEQSTFKVLSTKIEIKLKKPEAVRWEKLEGQGDVPTPKQFVADVKNLYPSSSPYTRNWDKLVGEIKEEEKNEKLEGDAALNRLFQQIYSDGSDEVKRAMNKSFMESGGTVLSTNWSDVGKRKVEINPPDDMEWKKY
binding: binds

Results are given in words; binding and its absence hold for the method and conditions named. Binding calls can cover weak binding; strength is not graded here.
